# Primary screen of a compound library

Protein sequences, listed by entry. Tags and fused reporters are not part of them. Residues count along the entry.
UniProt P9WPC5, whole entry: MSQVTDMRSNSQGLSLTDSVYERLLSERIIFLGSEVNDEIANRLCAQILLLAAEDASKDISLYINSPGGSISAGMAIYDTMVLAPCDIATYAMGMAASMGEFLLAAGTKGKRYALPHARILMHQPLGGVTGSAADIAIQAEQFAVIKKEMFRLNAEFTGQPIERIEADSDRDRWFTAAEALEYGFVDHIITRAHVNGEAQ
UniProt P9WPC3, whole entry partner: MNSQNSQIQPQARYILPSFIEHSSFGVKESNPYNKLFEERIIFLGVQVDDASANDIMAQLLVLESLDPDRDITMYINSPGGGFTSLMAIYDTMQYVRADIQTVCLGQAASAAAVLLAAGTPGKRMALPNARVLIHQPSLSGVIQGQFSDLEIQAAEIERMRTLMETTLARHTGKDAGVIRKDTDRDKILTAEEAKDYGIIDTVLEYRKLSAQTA
UniProt Q8IDJ8, 1-583: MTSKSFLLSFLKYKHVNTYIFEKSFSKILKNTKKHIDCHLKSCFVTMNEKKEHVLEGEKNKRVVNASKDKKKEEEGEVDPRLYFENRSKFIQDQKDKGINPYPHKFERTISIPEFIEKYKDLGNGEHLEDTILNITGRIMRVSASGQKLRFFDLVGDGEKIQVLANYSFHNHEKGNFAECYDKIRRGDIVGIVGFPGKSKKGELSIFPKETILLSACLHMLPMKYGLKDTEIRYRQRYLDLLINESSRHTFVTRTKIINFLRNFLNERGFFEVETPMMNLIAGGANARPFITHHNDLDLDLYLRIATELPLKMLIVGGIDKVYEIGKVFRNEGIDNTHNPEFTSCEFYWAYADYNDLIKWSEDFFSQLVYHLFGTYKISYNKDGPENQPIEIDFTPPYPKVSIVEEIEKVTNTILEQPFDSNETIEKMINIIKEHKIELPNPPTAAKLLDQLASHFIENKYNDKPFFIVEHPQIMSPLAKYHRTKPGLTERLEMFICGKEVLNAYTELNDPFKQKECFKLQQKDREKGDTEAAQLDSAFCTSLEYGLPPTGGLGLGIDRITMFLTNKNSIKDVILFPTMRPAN

The values are deposited in ChEMBL (CHEMBL3988442, “University of Dundee, Small-Polar-MMV Screening Library” (2021)).

Each number is a percent effect as filed. The record does not define 0% and 100%; most values in the screen are far below 50% and negative numbers occur (in some assays of this library far below -100). The compounds are a random part of those screened. A dash means the value is not listed here; it may have been measured.

A: 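Cell assay of Leishmania donovani living inside macrophages; the read-out is not stated. Tested at 30 µM. Direction is inferred from retests: higher values go with stronger inhibition. About 69,000 compounds were tested under these conditions; 1.5% (about 1,000) showed 50% or more at least once.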
B: 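ClpP1P2, Mycobacterium tuberculosis (UniProt P9WPC5 and UniProt P9WPC3). Protease assay of ClpP1P2, read by the AMC dye that it sets free. Tested at 50 µM. Direction is inferred from only a few compounds that gave an IC50; most scored high, so higher reads as stronger inhibition. Most other retested compounds had strongly negative values. Size under these conditions: about 69,000 compounds, about 10 of them at 50% or above in at least one test.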
C: 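Assay of Toxoplasma gondii numbers, read through their beta-galactosidase reporter with a colour substrate. Concentration: 10 µM. Higher reads as fewer parasites (inferred from which compounds were picked for retests). About 67,000 compounds were tested under these conditions; 0.38% (about 260) showed 50% or more at least once.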
D: 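Enzyme assay of the cytosolic lysyl-tRNA synthetase in 384-well plates, read by luminescence. Target: Lysine-tRNA ligase, Plasmodium falciparum 3D7 (UniProt Q8IDJ8). Compounds at 30 µM. Direction is inferred from only a few compounds that gave an IC50; most scored high, so higher reads as stronger inhibition. About 69,000 compounds were tested under these conditions; 0.071% (about 49) showed 50% or more at least once.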

Compound | A | B | C | D
CC(=O)Nc1ccc(CN2CCOC2=O)cc1 | -5.751% | -1.789% | 5.625% | -3.233%
CC(c1nc(C2CC2)no1)N1CCN(c2ccc(C#N)cn2)CC1 (centres undefined) | 17.85% | -12.05% | -2.162% | 1.335%
COc1ccc(C2OC(COc3ccccc3Br)=NN2C(C)=O)cc1 (centres undefined) | -3.912% | -8.97% | -7.871% | 0.5944%
CCn1cnnc1CNC(=O)Cc1ccc2c(c1)OCCO2 | -0.7481% | 6.066% | -14.54% | -0.7025%
Cc1cc2ccccc2n1CCC(=O)N1CCCC2(CC1)CNC(=O)O2 (centres undefined) | -15.99% | -10.58% | 12.87% | -0.03541%
Cn1cc(C(=O)OCC(N)=O)c(-c2ccc(F)cc2F)n1 | -1.814% | 2.101% | -7.561% | 6.921%
CN([C@@H]1CCC[C@@H](n2ccnc2)[C@@H]1O)S(=O)(=O)c1cn(C)cn1 | -3.687% | -9.567% | 14.27% | -0.8059%
CN(C)C(=O)COCc1cncc2c1CCN(Cc1nccn1C)C2 | -1.558% | -5.29% | 8.9% | 8.251%
COc1ccc(-c2nc(CCNC(=O)NC3CCC(O)CC3)co2)cc1 (centres undefined) | 33.47% | 2.071% | 21.17% | -0.284%
CC(NC(=O)N(C)Cc1ccsc1)c1nncn1C (centres undefined) | 14.98% | 3.595% | -13.4% | 3.713%
[H][C@@]12CCCO[C@]1([H])[C@H](Nc1ccccn1)CN(Cc1cccc(C)n1)C2 | -17.53% | - | -1.708% | -
O=C(O)C(F)(F)F.O=C(O)C(F)(F)F.[H][C@@]12OCCN(CC3CCOCC3)[C@@]1([H])CC[C@H]2Oc1ccccn1 | -8.167% | - | 2.254% | -
CC(=O)N(C)c1nc(Cn2nnnc2C(C)C)cs1 | 35.29% | 9.754% | -10.29% | 0.6051%
COc1ccc(-n2ccc(C(=O)NCCn3ccnc3)n2)cc1 | 5.997% | -6.144% | -9.501% | 3.043%
O=C(O)C(F)(F)F.O=C(O)C(F)(F)F.[H][C@@]12OCCN(Cc3nccs3)[C@@]1([H])CC[C@@H]2OCc1ccncc1 | 33.17% | - | -24.9% | -
[H][C@]12CC[C@@H](N(C)c3ccc(C)nn3)[C@@]1([H])CN(C(=O)CC1CCOCC1)C2 | 10.13% | - | 4.134% | -
Cc1cc(CN2Cc3ccccc3CC2c2nnc(C)o2)on1 (centres undefined) | -9.702% | 1.987% | -13.76% | 0%
Cc1cc2c(cc1CNC(Cc1cccs1)c1nccs1)OCO2.Cl (centres undefined) | 16.01% | - | -11.46% | -
O=C(CN1CC(c2nc(C3CC3)no2)C1)N1CCOCC1 | - | -11.95% | - | 7.363%
NC(=O)c1ccc(N2CCN(Cc3c(Cl)cncc3Cl)CC2)nc1 | -19.95% | -9.782% | -1.665% | 0.2944%
Cc1nc(C(C)C)sc1C(=O)NS(=O)(=O)c1ccc(C#N)cc1 | 5.757% | -8.41% | -0.6924% | 2.243%
Cc1cc(C)nc(N2CCOC(C)(C(=O)N(C)C)C2)n1 (centres undefined) | 3.219% | 22.52% | 5.556% | -0.04577%
CN(C)C(=O)c1nc(-c2ccc(S(C)(=O)=O)cc2)c2cnccn12 | 17.49% | -14.71% | 5.714% | 2.404%
Cc1nnc(NC(=O)NC2CCCc3c2cnn3CCO)s1 (centres undefined) | 20.46% | 15.07% | 6.279% | 3.866%
COCC(=O)NCc1cc(=O)n2c(n1)CN(CC1CCOC1)CCC2.O=C(O)C(F)(F)F (centres undefined) | -9.606% | - | -0.6993% | -
Cn1ccc(NC(=O)CN2CCN(C3CCCC3)C(=O)C2)n1 | 16.35% | -10.97% | 4.254% | 0.6076%
Cc1cc(S(C)(=O)=O)c(C)c(S(=O)(=O)NCC2CCCO2)c1 (centres undefined) | 5.463% | -3.034% | 1.517% | 3.718%
COCCCNC1CCCN(c2ccc(C)nn2)C1 (centres undefined) | 0.5253% | 5.296% | 0.345% | 4.388%
Cc1cccc(CN(Cc2ccccn2)Cc2ncc(C(C)(C)C)o2)c1 | 68.09% | -21.63% | 36.37% | 2.133%
O=S(=O)(NCCCn1cncn1)c1ccc2c(c1)CCC2 | 12.04% | 1.064% | 28.97% | 12.3%
O=C(O)c1ccc(CN2CCCC(Cc3ccn[nH]3)C2)cc1 (centres undefined) | 30.34% | -0.7934% | -18.63% | 0.7261%
Cc1cc(N2CCC(NS(C)(=O)=O)CC2)nc(C(C)C)n1 | 47.13% | 15.4% | - | 5.23%
CN1CCC2(CC1)CN(CC1CC1)CC21CCNC1=O.O=C(O)C(F)(F)F.O=C(O)C(F)(F)F (centres undefined) | -0.9612% | - | -14.67% | -
COc1ccc(C2CNCCN2C(=O)c2cccc3ncccc23)cc1 (centres undefined) | -10.41% | -20.23% | 16.27% | 1.588%
O=C(O)C(F)(F)F.[H][C@]12CCN(Cc3c(C)noc3C)[C@@]1([H])CC[C@@H](COCC1CC1)O2 | 24.93% | - | 5.296% | -
O=C1CCNC(=O)N1CC(=O)N1CCC1c1ccc(F)cc1 (centres undefined) | 27.94% | 1.022% | -10.22% | 0.774%
Cc1noc(C)c1CN1CCn2cc(CNC(=O)C3CCC3)nc2C1.O=C(O)C(F)(F)F | 1.659% | - | 1.634% | -
N[C@H]1CN(S(=O)(=O)N2CCCCCC2)C[C@@H]1c1ccccc1 | 10.01% | -1.25% | -5.177% | -3.972%
CS(=O)(=O)NC(=O)c1nnn(-c2ccccc2)c1C1CC1 | -1.895% | -31.31% | 4.882% | 2.127%
CS(=O)(=O)CCC(=O)NC1(c2cccc(Br)c2)CC1 | -8.241% | -9.219% | -1.847% | -1.573%

The last 5 entries again:

For O=C1CCNC(=O)N1CC(=O)N1CCC1c1ccc(F)cc1 (centres undefined) the result was A: 27.94%; B: 1.022%; C: -10.22%; D: 0.774%.
For Cc1noc(C)c1CN1CCn2cc(CNC(=O)C3CCC3)nc2C1.O=C(O)C(F)(F)F the result was A: 1.659%; C: 1.634%.
For N[C@H]1CN(S(=O)(=O)N2CCCCCC2)C[C@@H]1c1ccccc1 the result was A: 10.01%; B: -1.25%; C: -5.177%; D: -3.972%.
For CS(=O)(=O)NC(=O)c1nnn(-c2ccccc2)c1C1CC1 the result was A: -1.895%; B: -31.31%; C: 4.882%; D: 2.127%.
For CS(=O)(=O)CCC(=O)NC1(c2cccc(Br)c2)CC1 the result was A: -8.241%; B: -9.219%; C: -1.847%; D: -1.573%.